The assay addresses GFP-tagged p97/VCP (Valosin Containing Protein) (UniProt P55072). In words: co-IP; lysate of GFP-tagged p97/VCP expressing cells in Pierce IP-lysis buffer (25 mM Tris-HCl pH 7.4, 150 mM NaCl, 1 mM EDTA, 1% NP-40, 5% glycerol) incubated with anti-GFP antibody conjugated agarose beads or unconjugated agarose beads (Chromotek) for four hours at 4°C; washed three times; western blot. On the technique in general: In western blotting, separated proteins are transferred to a membrane and probed.

Results are given in words; binding and its absence hold for the method and conditions named. Binding seen in cells or lysates may run through a third protein. Some entries that bind do so weakly or less than the wild type.

B1: FBXL19 (protein, UniProt Q6PCT2 1-694)
chain: MGMKVPGKGESGPSALLTPPMSSSSRGPGAGARRRRTRCRRCRACVRTECGDCHFCRDMKKFGGPGRMKQSCLLRQCTAPVLPHTAVCLLCGEAGKEDTVEGEEEKFGLSLMECTICNEIVHPGCLKMGKAEGVINAEIPNCWECPRCTQEGRTSKDSGEGPGRRRADNGEEGASLGSGWKLTEEPPLPPPPPRRKGPLPAGPPPEDVPGPPKRKEREAGNEPPTPRKKVKGGRERHLKKVGGDACLLRGSDPGGPGLLPPRVLNPSQAFSSCHPGLPPENWEKPKPPLASAEGPAVPSPSPQREKLERFKRMCQLLERVPDTSSSSSDSDSDSDSSGTSLSEDEAPGEARNGRRPARGSSGEKENRGGRRAVRPGSGGPLLSWPLGPAPPPRPPQLERHVVRPPPRSPEPDTLPLAAGSDHPLPRAAWLRVFQHLGPRELCICMRVCRTWSRWCYDKRLWPRMDLSRRKSLTPPMLSGVVRRQPRALDLSWTGVSKKQLMWLLNRLQGLQELVLSGCSWLSVSALGSAPLPALRLLDLRWIEDVKDSQLRELLLPPPDTKPGQTESRGRLQGVAELRLAGLELTDASLRLLLRHAPQLSALDLSHCAHVGDPSVHLLTAPTSPLRETLVHLNLAGCHRLTDHCLPLFRRCPRLRRLDLRSCRQLSPEACARLAAAGPPGPFRCPEEKLLLKDS
For B1, the binding entry is on record as “binds”.

(Values after publication PMC6967774.)
